Data taken from patent US20210322417A1, “GASTRIC CANCER TREATMENTS” (The Jackson Laboratory, priority 2018, published 2021).
At least one compound was matched to its structure with a doubt left.

Legend:
Type in all cases: cell-based, human
[1] = system: PTEN null OE19 cells; test: CellTiter-Glo cell viability assay, PTEN null OE19; conditions: for effect on cell growth/viability: indicated doses of the agent in combination with 0.05 μM Lapatinib
[2] = system: CSK null OE19 cells; test: CellTiter-Glo cell viability assay, CSK null OE19; conditions: for effect on cell growth/viability: indicated doses of the agent in combination with 0.05 μM Lapatinib
[3] = system: OE19 cells transduced with non-targeting gRNA; test: CellTiter-Glo cell viability assay, control OE19; conditions: indicated doses of the agent in combination with 0.05 μM Lapatinib, 6 days
Source text: Viral particles were generated as described above.

SMILES | effect on cell growth/viability ([1]; 6 days, PTEN null OE19) | effect of increased doses on cell growth ([2]; Rapamycin 0.025-0.05 μM with 0.05 μM Lapatinib, versus 0.01 μM, CSK knockout OE19) | effect on cell growth/viability ([2]; 6 days, CSK null OE19) | effect of increased doses on cell growth ([1]; Rapamycin 0.025-0.05 μM with 0.05 μM Lapatinib, versus 0.01 μM, PTEN knockout OE19) | effect on cell growth [3] | effect on cell growth ([2]; 0.1 μM of the agent in combination with 0.05 μM Lapatinib, 6 days, CSK null OE19) | effect on cell growth ([1]; 0.1 μM of the agent in combination with 0.05 μM Lapatinib, 6 days, PTEN null OE19)
CN1CCN(CCOc2cc(OC3CCOCC3)c3c(Nc4c(Cl)ccc5c4OCO5)ncnc3c2)CC1 [AZD0530, Saracatinib] | decreased the cell viability |  |  |  |  |  | 
CO[C@H]1C[C@@H]2CC[C@@H](C)[C@@](O)(O2)C(=O)C(=O)N2CCCC[C@H]2C(=O)O[C@H]([C@H](C)C[C@@H]2CC[C@@H](O)[C@H](OC)C2)CC(=O)[C@H](C)/C=C(\C)[C@@H](O)[C@@H](OC)C(=O)[C@H](C)C[C@H](C)/C=C/C=C/C=C/1C [Rapamycin] | significantly inhibited cell growth | couldn't further decrease cell growth | significantly inhibited cell growth | couldn't further decrease cell growth | significantly inhibited cell growth |  | 
CC(=O)Nc1cccc(-n2c(=O)n(C3CC3)c(=O)c3c(Nc4ccc(I)cc4F)n(C)c(=O)c(C)c32)c1 [Trametinib] | dramatically overcome the resistance to Lapatinib |  | dramatically overcome the resistance to Lapatinib |  |  | significantly inhibited the cell growth, but not completely | significantly inhibited the cell growth, but not completely
